Results reported in article PMC8642408.
No constants are given. Whether binding was seen depends on the method and setting. Binding seen in cells or lysates may run through a third protein. Some results given as binding are weak or reduced against the parent protein; the word gives no strength. Sequences can lack the tags named with a protein.

By UniProt entry, the sequences of proteins in these tests, tags left out.
UniProt Q9V9J3: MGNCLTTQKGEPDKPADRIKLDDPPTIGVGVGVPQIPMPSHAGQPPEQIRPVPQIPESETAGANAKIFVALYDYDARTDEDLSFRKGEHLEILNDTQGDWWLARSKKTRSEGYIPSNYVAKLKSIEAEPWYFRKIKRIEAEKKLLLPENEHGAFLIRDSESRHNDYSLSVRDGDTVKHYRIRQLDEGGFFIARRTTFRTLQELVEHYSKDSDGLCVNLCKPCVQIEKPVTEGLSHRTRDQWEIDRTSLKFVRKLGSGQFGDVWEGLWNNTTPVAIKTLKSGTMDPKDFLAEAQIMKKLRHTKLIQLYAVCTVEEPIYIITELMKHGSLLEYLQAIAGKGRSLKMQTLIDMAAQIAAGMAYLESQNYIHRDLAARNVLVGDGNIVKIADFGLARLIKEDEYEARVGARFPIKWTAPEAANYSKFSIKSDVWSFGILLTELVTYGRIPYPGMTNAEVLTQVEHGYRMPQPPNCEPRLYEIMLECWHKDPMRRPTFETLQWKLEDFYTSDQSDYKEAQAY

Columns and labels:
[1] = target: T1, Myc-Wts (Drosophila) (UniProt Q9VA38); assay: co-IP; Drosophila S2 cells transfected with tagged constructs; harvested 48 h after transfection; IP with anti-Myc or anti-HA, then immunoblot
T1 sequence: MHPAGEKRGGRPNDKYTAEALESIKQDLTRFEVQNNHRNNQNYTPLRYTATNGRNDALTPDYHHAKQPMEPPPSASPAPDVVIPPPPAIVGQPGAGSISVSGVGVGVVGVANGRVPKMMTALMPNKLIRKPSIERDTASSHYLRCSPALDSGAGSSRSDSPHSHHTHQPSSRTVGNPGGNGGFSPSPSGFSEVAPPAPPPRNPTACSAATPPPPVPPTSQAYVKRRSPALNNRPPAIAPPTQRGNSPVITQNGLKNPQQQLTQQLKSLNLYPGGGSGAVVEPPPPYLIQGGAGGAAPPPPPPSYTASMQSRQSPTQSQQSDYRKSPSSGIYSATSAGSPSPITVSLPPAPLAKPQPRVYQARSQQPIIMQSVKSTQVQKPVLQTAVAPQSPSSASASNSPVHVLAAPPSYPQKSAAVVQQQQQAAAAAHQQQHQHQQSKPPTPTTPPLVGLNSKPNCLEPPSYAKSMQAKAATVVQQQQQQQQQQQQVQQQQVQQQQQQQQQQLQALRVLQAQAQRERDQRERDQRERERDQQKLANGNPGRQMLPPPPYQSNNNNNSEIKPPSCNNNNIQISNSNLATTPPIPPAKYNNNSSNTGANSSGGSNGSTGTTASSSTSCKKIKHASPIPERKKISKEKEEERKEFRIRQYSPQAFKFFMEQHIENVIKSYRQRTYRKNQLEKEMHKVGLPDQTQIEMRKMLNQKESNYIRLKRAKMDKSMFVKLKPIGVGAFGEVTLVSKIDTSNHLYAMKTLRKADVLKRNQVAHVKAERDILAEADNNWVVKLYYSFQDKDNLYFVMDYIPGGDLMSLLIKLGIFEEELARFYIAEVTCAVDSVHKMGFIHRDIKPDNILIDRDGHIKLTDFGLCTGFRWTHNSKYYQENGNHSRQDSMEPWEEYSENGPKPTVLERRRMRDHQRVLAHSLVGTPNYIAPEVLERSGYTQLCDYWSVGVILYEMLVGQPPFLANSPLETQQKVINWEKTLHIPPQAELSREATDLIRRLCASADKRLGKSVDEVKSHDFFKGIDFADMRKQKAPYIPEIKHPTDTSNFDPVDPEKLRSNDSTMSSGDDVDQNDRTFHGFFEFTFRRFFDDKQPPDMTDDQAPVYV

[2] = target: HA-Src42A (Drosophila) (UniProt Q9V9J3); assay: as above
[3] = target: T1, Myc-Wts (Drosophila); assay: co-IP; Drosophila S2 cells, with or without co-expressed Src42A; which protein was precipitated not given

**Q.** Which binding [1] does the source give for “HA-Src42A (from UniProt Q9V9J3 1-517) (enzyme)” here?
**A.** binds

B1: Myc-Wts (enzyme, UniProt Q9VA38 1-1105)
chain: MHPAGEKRGGRPNDKYTAEALESIKQDLTRFEVQNNHRNNQNYTPLRYTATNGRNDALTPDYHHAKQPMEPPPSASPAPDVVIPPPPAIVGQPGAGSISVSGVGVGVVGVANGRVPKMMTALMPNKLIRKPSIERDTASSHYLRCSPALDSGAGSSRSDSPHSHHTHQPSSRTVGNPGGNGGFSPSPSGFSEVAPPAPPPRNPTACSAATPPPPVPPTSQAYVKRRSPALNNRPPAIAPPTQRGNSPVITQNGLKNPQQQLTQQLKSLNLYPGGGSGAVVEPPPPYLIQGGAGGAAPPPPPPSYTASMQSRQSPTQSQQSDYRKSPSSGIYSATSAGSPSPITVSLPPAPLAKPQPRVYQARSQQPIIMQSVKSTQVQKPVLQTAVAPQSPSSASASNSPVHVLAAPPSYPQKSAAVVQQQQQAAAAAHQQQHQHQQSKPPTPTTPPLVGLNSKPNCLEPPSYAKSMQAKAATVVQQQQQQQQQQQQVQQQQVQQQQQQQQQQLQALRVLQAQAQRERDQRERDQRERERDQQKLANGNPGRQMLPPPPYQSNNNNNSEIKPPSCNNNNIQISNSNLATTPPIPPAKYNNNSSNTGANSSGGSNGSTGTTASSSTSCKKIKHASPIPERKKISKEKEEERKEFRIRQYSPQAFKFFMEQHIENVIKSYRQRTYRKNQLEKEMHKVGLPDQTQIEMRKMLNQKESNYIRLKRAKMDKSMFVKLKPIGVGAFGEVTLVSKIDTSNHLYAMKTLRKADVLKRNQVAHVKAERDILAEADNNWVVKLYYSFQDKDNLYFVMDYIPGGDLMSLLIKLGIFEEELARFYIAEVTCAVDSVHKMGFIHRDIKPDNILIDRDGHIKLTDFGLCTGFRWTHNSKYYQENGNHSRQDSMEPWEEYSENGPKPTVLERRRMRDHQRVLAHSLVGTPNYIAPEVLERSGYTQLCDYWSVGVILYEMLVGQPPFLANSPLETQQKVINWEKTLHIPPQAELSREATDLIRRLCASADKRLGKSVDEVKSHDFFKGIDFADMRKQKAPYIPEIKHPTDTSNFDPVDPEKLRSNDSTMSSGDDVDQNDRTFHGFFEFTFRRFFDDKQPPDMTDDQAPVYV
**Q.** How did the binding [2] turn out when B1 was run?
**A.** binds

B2: Mob as a tumor suppressor (Mats) (protein, UniProt Q95RA8 1-219)
chain: MDFLFGSRSSKTFKPKKNIPEGTHQYDLMKHAAATLGSGNLRNAVALPDGEDLNEWVAVNTVDFFNQINMLYGTITEFCTEETCGIMSAGPKYEYHWADGLTVKKPIKCSAPKYIDYLMTWVQDQLDDETLFPSKIGVPFPKNFHSSAKTILKRLFRVYAHIYHQHFTEVVTLGEEAHLNTSFKHFIFFVQEFNLIERRELAPLQELIDKLTAKDERQI
**Q.** With B2 as the molecule, how does the binding [3] read?
**A.** binds
